The results in this text go back to paper PMC7707563.

Chains of the proteins cited; added tags and fusions are not shown. Residues count along the entry.
UniProt Q9NPF7, residues 20-189: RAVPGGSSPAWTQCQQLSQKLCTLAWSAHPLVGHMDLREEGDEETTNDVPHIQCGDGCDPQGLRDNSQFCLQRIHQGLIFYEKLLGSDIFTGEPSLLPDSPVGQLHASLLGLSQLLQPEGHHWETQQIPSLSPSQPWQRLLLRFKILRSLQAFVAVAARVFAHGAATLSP

These are yes or no findings as the source states them, for the method shown. For some assays here: In cells and extracts the contact can be indirect. Some results given as binding are weak or reduced against the parent protein; the word gives no strength. Tags and fused reporters may be left off the sequences shown.

The target in test [1] is human IL-23 p19 (aa20-189) (human) (UniProt Q9NPF7). As to the kind of experiment: co-IP; concentrated, pre-cleared supernatants of untagged p19 and EBI3 co-transfected HEK293FT cells; anti-p19 antibody and Protein G sepharose, PBS-0.05% Tween 20, 4°C; EBI3 Western blot. For orientation: A western blot detects proteins with antibodies after separation by electrophoresis.
Test [2] has the same target. As to the kind of experiment: ELISA; sandwich: plate coated with anti-p19 antibody, concentrated supernatants of p19 and EBI3-His transfected HEK293FT cells 2 hrs at room temperature, detection with biotinylated EBI3 antibody and HRP-Avidin. Background: In an ELISA, binding on a coated surface is turned into a signal by an enzyme label.

B1: EBI3 (aa21-229), untagged (protein, UniProt Q14213 21-229)
chain: RKGPPAALTLPRVQCRASRYPIAVDCSWTLPPAPNSTSPVSFIATYRLGMAARGHSWPCLQQTPTSTSCTITDVQLFSMAPYVLNVTAVHPWGSSSSFVPFITEHIIKPDPPEGVRLSPLAERQLQVQWEPPGSWPFPEIFSLKYWIRYKRQGAARFHRVGPIEATSFILRAVRPRARYYVQVAAQDLTDYGELSDWSLPATATMSLGK
On to B1, for which, in test [1], the binding result was “binds”.

B2: C-terminally 10 x His-tagged EBI3 (protein, UniProt Q14213 21-229)
chain: B1 chain
For B2, the binding entry in test [2] is given as “binds”.
